Amino acid sequences for entries named in this document (tags omitted). A change or cut given only in a name is not applied to a line headed by its entry. Residues count along the entry.
UniProt P56703, residues 22-355: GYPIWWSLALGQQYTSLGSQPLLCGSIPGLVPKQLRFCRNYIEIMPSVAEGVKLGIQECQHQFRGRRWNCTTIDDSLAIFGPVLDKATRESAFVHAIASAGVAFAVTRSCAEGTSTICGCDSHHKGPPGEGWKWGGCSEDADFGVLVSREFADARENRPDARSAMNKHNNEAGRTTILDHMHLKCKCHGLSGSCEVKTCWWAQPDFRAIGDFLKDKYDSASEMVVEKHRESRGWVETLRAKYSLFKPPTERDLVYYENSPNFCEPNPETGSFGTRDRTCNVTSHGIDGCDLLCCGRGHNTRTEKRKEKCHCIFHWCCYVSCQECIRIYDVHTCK
UniProt P15514: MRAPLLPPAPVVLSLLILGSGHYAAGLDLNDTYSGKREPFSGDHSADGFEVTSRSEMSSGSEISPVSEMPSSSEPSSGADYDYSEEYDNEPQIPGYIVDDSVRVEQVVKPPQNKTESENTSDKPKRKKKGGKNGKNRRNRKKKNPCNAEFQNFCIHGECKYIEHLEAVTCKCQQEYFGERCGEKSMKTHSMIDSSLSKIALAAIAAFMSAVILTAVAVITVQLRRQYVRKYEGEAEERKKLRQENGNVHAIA

In article PMC8610286:

What was measured:
FLAG-tagged SHC2 = molecular target: T1, FLAG-tagged SHC2 (UniProt P98077); experiment: co-IP; LN229 glioblastoma cells co-transfected with an HA-tagged construct of a predicted gene and FLAG-tagged WNT3 or FLAG-tagged SHC2; interactions determined by immunoblotting
T1 sequence: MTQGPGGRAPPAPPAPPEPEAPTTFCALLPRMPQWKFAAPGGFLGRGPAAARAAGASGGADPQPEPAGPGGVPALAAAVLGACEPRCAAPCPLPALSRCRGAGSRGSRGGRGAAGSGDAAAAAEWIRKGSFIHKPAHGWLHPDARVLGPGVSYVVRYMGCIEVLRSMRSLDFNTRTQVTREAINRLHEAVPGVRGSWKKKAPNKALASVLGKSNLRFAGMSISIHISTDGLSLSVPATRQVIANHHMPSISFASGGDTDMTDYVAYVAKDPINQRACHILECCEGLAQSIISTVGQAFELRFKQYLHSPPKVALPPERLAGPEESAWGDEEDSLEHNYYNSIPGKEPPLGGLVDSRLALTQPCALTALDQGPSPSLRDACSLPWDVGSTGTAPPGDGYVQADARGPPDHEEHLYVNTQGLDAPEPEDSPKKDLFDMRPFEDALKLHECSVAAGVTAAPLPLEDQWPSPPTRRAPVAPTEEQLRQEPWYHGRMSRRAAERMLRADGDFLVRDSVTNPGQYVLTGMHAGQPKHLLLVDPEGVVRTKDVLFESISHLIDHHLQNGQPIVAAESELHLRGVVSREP

FLAG-tagged WNT3 = FLAG-tagged WNT3 (UniProt P56703); experiment: as above

HA-tagged AREG (from UniProt P15514) was tested, and the binding (FLAG-tagged SHC2) was “no binding” and the binding (FLAG-tagged WNT3) was “binds”.

No constants are given. Whether binding was seen depends on the method and setting. Binding seen in cells or lysates may run through a third protein. For some assays here: A result given as binding can be weak or reduced; the word gives no strength. For some assays here: Where a sequence is shown, tags or fusion partners need not be part of it.
